Reference: PubChem BioAssay AID743454 (Peter MacCallum Cancer Centre, 2014)

- Test: 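Search for knock-downs that restore vorinostat killing in resistant colon cancer cells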 (primary screen)
- Cells: human HCT116-VR colon cancer cells, selected for vorinostat resistance
- Reagents: siRNA pool against human genes, 40 nM siRNA pool
- Time to read-out: vorinostat for 24 h, read-out about 72 h after transfection
- Challenge: vorinostat at 2.5 µM final
- Measurement: 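Two measures, CellTiter-Fluor viability and luminescent caspase 3/7 activity, each as fold change against same-plate mock wells, mean of duplicates, then screen-wide robust z-score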
- Direction: viability robust z-score: higher = more viable cells than screen typical; caspase robust z-score: higher = more caspase 3/7 activity than screen typical
- Rule for the call: 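Hits are knock-downs in viability class RV1/RV2 or caspase class CA1/CA2, excluding ones that killed cells in the no-drug cell-count arm; hits then retested with single siRNAs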
The deposit covers about 18,000 reagents; this is an unselected part. Of all reagents, 450 (2.5%) were called active. 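Single biological run; no consistent viability z cut-off exists, so the class columns, not z-scores, define the calls.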 Unmarked entries are inactive.

YBX2 (GeneID 51087)
- viability hit class: no change
- caspase hit class: no change
- viability robust z-score: 0.99
- caspase robust z-score: -0.67

SLC67A1 (GeneID 5002)
- viability hit class: no change
- caspase hit class: no change
- viability robust z-score: -1.5
- caspase robust z-score: 4.88

CLK4 (GeneID 57396)
- viability hit class: no change
- caspase hit class: no change
- viability robust z-score: -0.29
- caspase robust z-score: -1.15

RPLP0 (GeneID 6175)
- viability hit class: no change
- caspase hit class: no change
- viability robust z-score: -4.59
- caspase robust z-score: -1.5

AFF2 (GeneID 2334)
- viability hit class: no change
- caspase hit class: no change
- viability robust z-score: 0.01
- caspase robust z-score: -0.72

ENAH (GeneID 55740)
- viability hit class: no change
- caspase hit class: no change
- viability robust z-score: 0.08
- caspase robust z-score: 1.41

OR2T27 (GeneID 403239)
- viability hit class: no change
- caspase hit class: no change
- viability robust z-score: -1.05
- caspase robust z-score: -1.17

CASD1 (GeneID 64921)
- viability hit class: no change
- caspase hit class: no change
- viability robust z-score: 0.06
- caspase robust z-score: 1.68

AP1M1 (GeneID 8907)
- viability hit class: no change
- caspase hit class: no change
- viability robust z-score: 1.29
- caspase robust z-score: -0.76

SULT1C3 (GeneID 442038)
- viability hit class: no change
- caspase hit class: no change
- viability robust z-score: -0.53
- caspase robust z-score: -0.94

AKNA (GeneID 80709)
- viability hit class: no change
- caspase hit class: no change
- viability robust z-score: -0.56
- caspase robust z-score: 4.17

LACRT (GeneID 90070)
- viability hit class: no change
- caspase hit class: no change
- viability robust z-score: 0.17
- caspase robust z-score: 2.06

RIMKLA (GeneID 284716)
- viability hit class: no change
- caspase hit class: no change
- viability robust z-score: -0.09
- caspase robust z-score: 0.16

KRT18 (GeneID 3875)
- viability hit class: no change
- caspase hit class: no change
- viability robust z-score: 0.38
- caspase robust z-score: -0.16

CBX3 (GeneID 11335)
- viability hit class: no change
- caspase hit class: no change
- viability robust z-score: 0.67
- caspase robust z-score: -0.03

TAMALIN (GeneID 160622)
- viability hit class: no change
- caspase hit class: no change
- viability robust z-score: 0.89
- caspase robust z-score: -0.06

SLC22A9 (GeneID 114571)
- viability hit class: no change
- caspase hit class: no change
- viability robust z-score: -0.68
- caspase robust z-score: -0.31

CCNJL (GeneID 79616)
- viability hit class: no change
- caspase hit class: no change
- viability robust z-score: -3.66
- caspase robust z-score: 1.46

POLR2I (GeneID 5438)
- viability hit class: RV2 (reduced viability) (active)
- caspase hit class: no change
- viability robust z-score: -2.99
- caspase robust z-score: 2.71

UBA52 (GeneID 7311)
- viability hit class: no change
- caspase hit class: no change
- viability robust z-score: -4.42
- caspase robust z-score: -1.64

DLX2 (GeneID 1746)
- viability hit class: no change
- caspase hit class: no change
- viability robust z-score: -1.77
- caspase robust z-score: -0.33

A few values from the list.
For “viability hit class”, AFF2 (GeneID 2334) has no change
Value for TAMALIN (GeneID 160622) in “viability hit class”: no change
Value of UBA52 (GeneID 7311) in “viability hit class”: no change
